From patent US20210403587A1
No constants are given. Whether binding was seen depends on the method and setting. Some entries that bind do so weakly or less than the wild type.

Chains of the proteins cited; added tags and fusions are not shown. Residues count along the entry.
UniProt Q02223, residues 1-54: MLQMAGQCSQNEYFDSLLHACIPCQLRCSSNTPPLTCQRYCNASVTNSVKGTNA

Biological target: human B-cell maturation antigen (BCMA) (human) (UniProt Q02223)
Assay: ELISA on protein and/or binding to cells expressing the target

binding: binds
B1: Anti-BCMA heavy chain-only variable region of TNB-383B (BCMA monovalent heavy chain) (antibody, V domains shown)
VH: EVQLLESGGGLVQPGGSLRLSCAASGFTVSSYGMSWVRQAPGKGPEWVSGIRGSDGSTYYADSVKGRFTISRDNSKNTLYLQMNSLRAEDTAVYYCAKQGENDGPFDHRGQGTLVTVSS
